Results deposited as PubChem BioAssay AID1259327 (Drosophila RNAi Screening Center, 2017)
Shown is one part, drawn at random, of about 3,100 reagents tested. 378 of all reagents (12%) count as active. 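Hits include both directions; z-score sign shows ATP rise or fall; raw luminescence values are not plate-normalised.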 Names joined by + are all predicted targets of the reagent. Not stated in the record: the amount of reagent.

Aim: 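Knock-downs altering cellular ATP with no metal added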
Cells: Drosophila S2R+ cells
Reagents: long dsRNA against Drosophila genes
Time to read-out: 5 days (water added on day 4, read one day later)
Conditions: water added as vehicle, no metal, one day before read-out
Detection: 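Total ATP measured by luciferase light, scaled to plate mean, duplicates averaged, then z-scored across plates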
Direction: ATP z-score: higher = more total ATP than typical wells; ATP luminescence: higher = more total ATP
Hit rule: 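a hit is any knock-down whose absolute ATP z-score is greater than 1.5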
Meaning of the calls: active = hit: ATP up or down; inactive = no clear ATP change

Which result is listed for CG7882 [DRSC04899]?
ATP z-score, duplicate mean: 0.0892; ATP luminescence, replicate 1 (RLU): 6.24e5; ATP luminescence, replicate 2 (RLU): 6.31e5; Call: inactive

Which result is listed for btl (breathless) [DRSC11331]?
ATP z-score, duplicate mean: -0.347; ATP luminescence, replicate 1 (RLU): 8.15e5; ATP luminescence, replicate 2 (RLU): 8.83e5; Call: inactive

For btl (breathless) [DRSC36653], what was measured?
ATP z-score, duplicate mean: -0.747; ATP luminescence, replicate 1 (RLU): 4.81e5; ATP luminescence, replicate 2 (RLU): 5.52e5; Call: inactive

What is on record for btl (breathless) [DRSC36654]?
ATP z-score, duplicate mean: -0.511; ATP luminescence, replicate 1 (RLU): 4.78e5; ATP luminescence, replicate 2 (RLU): 5.96e5; Call: inactive

For Tsp42Ek (Tetraspanin 42Ek) [DRSC06187], what does the deposit list?
ATP z-score, duplicate mean: -0.677; ATP luminescence, replicate 1 (RLU): 5.64e5; ATP luminescence, replicate 2 (RLU): 5.52e5; Call: inactive

What did the screen give for Tsp42Ek (Tetraspanin 42Ek) [DRSC39861]?
ATP z-score, duplicate mean: 0.327; ATP luminescence, replicate 1 (RLU): 5.72e5; ATP luminescence, replicate 2 (RLU): 6.57e5; Call: inactive

What did the screen give for CG11566 (retired record) + stg1 [DRSC20482]?
ATP z-score, duplicate mean: 0.503; ATP luminescence, replicate 1 (RLU): 8.59e5; ATP luminescence, replicate 2 (RLU): 7.30e5; Call: inactive

For CG11566 (retired record) + stg1 [DRSC20483], what was measured?
ATP z-score, duplicate mean: -0.735; ATP luminescence, replicate 1 (RLU): 6.41e5; ATP luminescence, replicate 2 (RLU): 6.86e5; Call: inactive

What did the screen give for CG9240 [DRSC20177]?
ATP z-score, duplicate mean: 1.27; ATP luminescence, replicate 1 (RLU): 7.92e5; ATP luminescence, replicate 2 (RLU): 8.08e5; Call: inactive

What did the screen give for CG32669 [DRSC18864]?
ATP z-score, duplicate mean: -0.823; ATP luminescence, replicate 1 (RLU): 4.46e5; ATP luminescence, replicate 2 (RLU): 6.44e5; Call: inactive

With Gr98b (Gustatory receptor 98b) [DRSC21675], what does the deposit list?
ATP z-score, duplicate mean: 3.04; ATP luminescence, replicate 1 (RLU): 6.95e5; ATP luminescence, replicate 2 (RLU): 9.82e5; Call: active

With Gr98b (Gustatory receptor 98b) [DRSC39891], what was measured?
ATP z-score, duplicate mean: 0.0591; ATP luminescence, replicate 1 (RLU): 5.14e5; ATP luminescence, replicate 2 (RLU): 6.73e5; Call: inactive

Which result is listed for CG4607 [DRSC18375]?
ATP z-score, duplicate mean: 0.422; ATP luminescence, replicate 1 (RLU): 5.97e5; ATP luminescence, replicate 2 (RLU): 8.18e5; Call: inactive

With Zip102B (Zinc/iron regulated transporter-related protein 102B) [DRSC26001], what was measured?
ATP z-score, duplicate mean: -0.478; ATP luminescence, replicate 1 (RLU): 7.37e5; ATP luminescence, replicate 2 (RLU): 8.45e5; Call: inactive

What is on record for Zip102B (Zinc/iron regulated transporter-related protein 102B) [DRSC39739]?
ATP z-score, duplicate mean: 0.171; ATP luminescence, replicate 1 (RLU): 4.09e5; ATP luminescence, replicate 2 (RLU): 5.47e5; Call: inactive

How did the screen score nAChRbeta1 (nicotinic Acetylcholine Receptor beta1) [DRSC08097]?
ATP z-score, duplicate mean: -0.0268; ATP luminescence, replicate 1 (RLU): 7.06e5; ATP luminescence, replicate 2 (RLU): 7.75e5; Call: inactive

Which result is listed for nAChRbeta1 (nicotinic Acetylcholine Receptor beta1) [DRSC08728]?
ATP z-score, duplicate mean: -0.0738; ATP luminescence, replicate 1 (RLU): 6.99e5; ATP luminescence, replicate 2 (RLU): 7.48e5; Call: inactive

Which result is listed for CG10804 [DRSC17764]?
ATP z-score, duplicate mean: 0.129; ATP luminescence, replicate 1 (RLU): 7.24e5; ATP luminescence, replicate 2 (RLU): 7.14e5; Call: inactive

Which result is listed for CG10804 [DRSC39540]?
ATP z-score, duplicate mean: -0.335; ATP luminescence, replicate 1 (RLU): 4.36e5; ATP luminescence, replicate 2 (RLU): 4.25e5; Call: inactive

What is on record for CG13743 [DRSC22775]?
ATP z-score, duplicate mean: 1.15; ATP luminescence, replicate 1 (RLU): 7.71e5; ATP luminescence, replicate 2 (RLU): 5.81e5; Call: inactive

Which result is listed for CG12490 + CG30265 [DRSC25712]?
ATP z-score, duplicate mean: 1.01; ATP luminescence, replicate 1 (RLU): 1.12e6; ATP luminescence, replicate 2 (RLU): 9.69e5; Call: inactive

With ste24b (ste24b prenyl protease type I) [DRSC07315], how do the results read?
ATP z-score, duplicate mean: 0.228; ATP luminescence, replicate 1 (RLU): 6.44e5; ATP luminescence, replicate 2 (RLU): 6.36e5; Call: inactive

For ste24b (ste24b prenyl protease type I) [DRSC24340], how do the results read?
ATP z-score, duplicate mean: -0.477; ATP luminescence, replicate 1 (RLU): 7.32e5; ATP luminescence, replicate 2 (RLU): 8.51e5; Call: inactive

What is on record for Elovl7 (ELOVL fatty acid elongase 7) [DRSC15452]?
ATP z-score, duplicate mean: 0.272; ATP luminescence, replicate 1 (RLU): 3.12e5; ATP luminescence, replicate 2 (RLU): 7.89e5; Call: inactive

Which result is listed for Elovl7 (ELOVL fatty acid elongase 7) [DRSC21570]?
ATP z-score, duplicate mean: 4.33; ATP luminescence, replicate 1 (RLU): 9.47e5; ATP luminescence, replicate 2 (RLU): 9.46e5; Call: active

What is on record for Elovl7 (ELOVL fatty acid elongase 7) [DRSC25259]?
ATP z-score, duplicate mean: 0.0659; ATP luminescence, replicate 1 (RLU): 8.52e5; ATP luminescence, replicate 2 (RLU): 8.11e5; Call: inactive

Targets above whose target name starts with Z or z:
Zip102B (Zinc/iron regulated transporter-related protein 102B) [DRSC26001] — ATP z-score, duplicate mean: -0.478; ATP luminescence, replicate 1 (RLU): 7.37e5; ATP luminescence, replicate 2 (RLU): 8.45e5; Call: inactive
Zip102B (Zinc/iron regulated transporter-related protein 102B) [DRSC39739] — ATP z-score, duplicate mean: 0.171; ATP luminescence, replicate 1 (RLU): 4.09e5; ATP luminescence, replicate 2 (RLU): 5.47e5; Call: inactive
